Experimental data: PubChem BioAssay AID1259405 (NCATS, 2018)
Here is one part, drawn at random, of about 50,000 reagents tested. Of all reagents, about 4,000 (8%) were called active. 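Mouse siRNA library applied to hamster cells; one well for each siRNA.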 The numbers tell different reagents against one gene apart. Not all columns of the deposit are shown.

Assay: 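Silenced genes that increase secreted GFP made by CHO cells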 (primary screen)
System: Chinese hamster CHO-K1 ovary cells with stable secreted eGFP expression
Reagents: single siRNA against mouse genes, 0.8 pmol siRNA per well (2 µl of 400 nM stock)
Timing: 3 days
Detection: 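Percent of the per-plate non-targeting control median for intracellular GFP per well by laser scanning cytometry and for cell viability by ATP luminescence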
Reading the numbers: GFP, % of control: higher = more GFP per well, higher productivity
Active means: 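Called active when intracellular GFP, relative to negative control, is at or above 120%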

GFP, % of control, by gene and reagent
Hras (GeneID 15461): #1 78.5 inactive; #2 122 active; #3 86.5 inactive
Or5p67 (GeneID 258490): #1 139 active; #2 102 inactive; #3 69.8 inactive
Ppp3r1 (GeneID 19058): #1 79.9 inactive; #2 52.1 inactive; #3 87.7 inactive
Ccdc181 (GeneID 74895): #1 73 inactive; #2 68.5 inactive; #3 154 active
Klk9 (GeneID 101533): #1 82.9 inactive; #2 75.8 inactive; #3 112 inactive
Abca17 (GeneID 381072): #1 78.8 inactive; #2 22.4 inactive; #3 63.6 inactive
Rgs2 (GeneID 19735): #1 59.1 inactive; #2 51.7 inactive; #3 50.7 inactive
Cand2 (GeneID 67088): #1 0 inactive; #2 81.5 inactive
Bfar (GeneID 67118): #1 59.4 inactive; #2 49 inactive; #3 58.2 inactive; #4 100 inactive; #5 87.1 inactive; #6 84 inactive
Gdf10 (GeneID 14560): #1 43 inactive; #2 63.5 inactive; #3 34.1 inactive
Mrpl54 (GeneID 66047): #1 108 inactive; #2 150 active; #3 69.6 inactive
Gsdma2 (GeneID 76758): #1 71.9 inactive; #2 65.4 inactive; #3 93.4 inactive
Cenpm (GeneID 66570): #1 88.9 inactive; #2 84.5 inactive; #3 107 inactive

Look-ups from the list.
Gdf10 (GeneID 14560) #3, GFP, % of control = 34.1
Value of Bfar (GeneID 67118) #5 under “activity call”: inactive
Abca17 (GeneID 381072) #3, GFP, % of control: 63.6
Ccdc181 (GeneID 74895) #3, GFP, % of control → 154
Under “activity call”, Gsdma2 (GeneID 76758) #2 reads inactive
For “GFP, % of control”, Klk9 (GeneID 101533) #2 has 75.8

Next entries follow:
GFP, % of control, by gene and reagent
Dyrk2 (GeneID 69181): #1 55.7 inactive; #2 104 inactive; #3 117 inactive
Ackr2 (GeneID 59289): #1 95.1 inactive; #2 95.9 inactive; #3 71.4 inactive
Csta2 (GeneID 76770): #1 53 inactive; #2 90.5 inactive; #3 87.3 inactive
Prkag2 (GeneID 108099): #1 56.7 inactive; #2 66.4 inactive
Ly9 (GeneID 17085): #1 59.2 inactive; #2 79.7 inactive; #3 57.7 inactive
Pknox1 (GeneID 18771): #1 111 inactive; #2 75.5 inactive; #3 76.6 inactive
D1Pas1 (GeneID 110957): #1 78.9 inactive; #2 113 inactive; #3 82.5 inactive
Gzmm (GeneID 16904): #1 80.3 inactive; #2 37.7 inactive; #3 63.5 inactive
Tomm7 (GeneID 66169): #1 68.6 inactive; #2 82.1 inactive; #3 50.5 inactive
Shbg (GeneID 20415): #1 108 inactive; #2 132 active; #3 133 active
Leprotl1 (GeneID 68192): #1 92.1 inactive; #2 84.2 inactive; #3 159 active
Cct8l1 (GeneID 242891): #1 105 inactive; #2 96.5 inactive; #3 87.6 inactive
Arhgap6 (GeneID 11856): #1 50.5 inactive; #2 70 inactive; #3 83.1 inactive
Barhl1 (GeneID 54422): #1 46 inactive; #2 90.1 inactive; #3 56.3 inactive
9430015G10Rik (GeneID 230996): #1 95.9 inactive; #2 56.7 inactive; #3 107 inactive
